{"sequences": {"note": "Sequences of proteins named here, by UniProt entry; tags and fusion partners are left off. A change or cut given only in a name is not applied to a line headed by its entry.", "UniProt P15170, whole entry": "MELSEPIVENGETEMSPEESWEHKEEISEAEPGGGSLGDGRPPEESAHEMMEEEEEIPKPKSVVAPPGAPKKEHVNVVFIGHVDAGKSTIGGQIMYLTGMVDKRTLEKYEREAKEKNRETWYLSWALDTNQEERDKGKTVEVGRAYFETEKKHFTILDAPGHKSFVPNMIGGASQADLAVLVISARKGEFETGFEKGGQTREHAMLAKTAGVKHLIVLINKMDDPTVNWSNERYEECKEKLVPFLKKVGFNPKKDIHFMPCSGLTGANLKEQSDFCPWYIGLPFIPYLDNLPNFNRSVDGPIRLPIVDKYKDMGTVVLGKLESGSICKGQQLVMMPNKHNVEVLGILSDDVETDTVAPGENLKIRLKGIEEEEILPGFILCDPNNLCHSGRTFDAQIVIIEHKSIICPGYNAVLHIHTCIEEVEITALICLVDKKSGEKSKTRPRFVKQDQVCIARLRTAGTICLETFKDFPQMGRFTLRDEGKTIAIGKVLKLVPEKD", "UniProt Q96SW2": "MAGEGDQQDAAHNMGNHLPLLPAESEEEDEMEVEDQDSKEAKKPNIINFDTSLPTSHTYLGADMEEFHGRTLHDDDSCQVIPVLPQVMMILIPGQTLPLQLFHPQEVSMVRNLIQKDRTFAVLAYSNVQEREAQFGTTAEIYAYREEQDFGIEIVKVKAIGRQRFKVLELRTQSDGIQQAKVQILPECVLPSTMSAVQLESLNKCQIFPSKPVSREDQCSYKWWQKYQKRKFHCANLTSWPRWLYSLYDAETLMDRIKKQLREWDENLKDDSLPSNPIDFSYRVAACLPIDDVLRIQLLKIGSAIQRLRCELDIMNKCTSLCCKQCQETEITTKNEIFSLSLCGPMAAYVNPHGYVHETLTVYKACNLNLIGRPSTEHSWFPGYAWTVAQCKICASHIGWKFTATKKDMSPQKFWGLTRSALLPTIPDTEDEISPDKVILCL"}, "source": "patent US20240051937A1", "about": "“ISOINDOLINONE AMIDE COMPOUNDS USEFUL TO TREAT DISEASES ASSOCIATED WITH GSPT1” (Monte Rosa Therapeutics, Inc., priority 2021, published 2024)", "biological_target": "GSPT1 (Homo sapiens, UniProt P15170+Q96SW2)", "experiment": "Immunofluorescence assay for GSPT1 degradation in CAL-Si cells", "assay_type": "cell-based", "design": "CAL-Si cells were purchased from DSMZ (cat. Number ACC302); host or cells: CAL-Si (CAL-51) cells", "settings": "compounds with code A", "description": "The representative compounds were tested in an immunofluorescence assay for their activity to bind to degrade GSPT1. CAL-Si cells were purchased from DSMZ (cat. Number ACC302), sub-cultured in 90% Dulbecco's MEM (4.5 g/L glucose, Gibco 11965)+10% […] inactivated FBS (BioConcept, 2-01F136I) and incubated at 37° C., 5% CO2. For the assay, imaging microtiterplate Cell Carrier 96 Ultra (Perkin Elmer 6055302) were pre-coated with Fibronectin (Sigma F085, 30 μl at 0.2 μg/ml) in PBS (100 μl, Gibco 14190) for 45 min at room temperature, rinsed with PBS and CAL-Si cells (30K cells/well) were plated and let to adhere overnight. Cells were treated with compounds typically using a serial dilution ranging from 30 μM to 0.1 nM for 6 hours. Compounds were stored at 10 mM DMSO stocks. Vehicle (DMSO), positive (CC-885, 10 μM) and rescue controls (positive control plus 0.2 μM bortezomib) were also included at this stage. Cells were subsequently rinsed with PBS and fixed in 10% Formalin solution (50 μl, Sigma HT5011)) for 20 mins at room temperature. Following three consecutive PBS washes (100 μl), cells were permeabilized in 0.1% Triton X-100 in PBS (Sigma 93443, 50 μl) for 15 mins at room temperature. Following three further PBS washes, […] blocking buffer (1% BSA, Sigma A4503, in PBS) was added for 45 min for signal-to-noise reduction.\nPrimary antibody (human GSPT1, Sigma HPA052488) was diluted in blocking buffer (dil.1/300, 35 μl/well) and incubated with the cells overnight at 4° C. After three PBS washes, Alexa-fluor 488 coupled secondary antibodies (Invitrogen, A32731, dil.1/1000), Alexa-fluor 647-Phalloidin (Invitrogen, A22287, dil.1/200) and DAPI (Thermo, #62248, dil.1/1000) were diluted in blocking buffer and incubated with the samples for 2 hours at room temperature. After three final PBS washes, samples were conserved in […] PBS in the dark, until measurement. Image acquisition was performed on the Operetta High-Content Imager (Perkin-Elmer). Fluorescence intensity of Alexa-Fluor 488 (GSPT1), Alexa-Fluor 647 (Actin) and DAPI (Nucleus) were measured. For the determination of GSPT1 DC50 values, a custom algorithm implemented in the PerkinElmer image analysis software Harmony-Acapella® was developed. After user-defined setting of adjustment parameters, the analysis was run identically without human intervention for all image fields. DAPI staining of the nuclei was used to determine the location of cells using standard nuclei detection modules. Segmentation artifacts were removed by threshold-based filters for area, roundness and intensity. The outline of the cells was determined analogously from the sum of the normalized, smoothed DAPI and Actin channel, starting from each nucleus.\nThe Alexa-Fluor 488 (GSPT1) signal intensity in each cell was finally measured, in order to obtain a Mean intensity per cell. GSPT1 degradation (DC50) was calculated after normalization to controls and data import in CDD vault Database, using non-linear regression.", "note": "Some entries share one result that the patent states for a list of compounds.", "data": [{"smiles": "Cc1ccc(NC(=O)CCc2ccc3c(c2)C(=O)N(C2CCC(=O)NC2=O)C3)cc1Cl", "note": "(centres unmarked) [Compound 1]", "values": [{"measurement": "DC50", "value": "≤ 30", "unit": "nM"}]}, {"smiles": "Cc1cc(C)cc(NC(=O)CCc2ccc3c(c2)C(=O)N(C2CCC(=O)NC2=O)C3)c1", "note": "(centres unmarked) [Compound 7]", "values": [{"measurement": "DC50", "value": "≤ 30", "unit": "nM"}]}, {"smiles": "O=C1CCC(N2Cc3ccc(CCC(=O)Nc4cc(Cl)cc(OC(F)(F)F)c4)cc3C2=O)C(=O)N1", "note": "(centres unmarked) [Compound 11]", "values": [{"measurement": "DC50", "value": "≤ 30", "unit": "nM"}]}, {"smiles": "Cc1c(Cl)cc(NC(=O)CCc2ccc3c(c2)C(=O)N(C2CCC(=O)NC2=O)C3)cc1CN1CC2CC1CO2", "note": "(centres unmarked) [Compound 22]", "values": [{"measurement": "DC50", "value": "≤ 30", "unit": "nM"}]}, {"smiles": "O=C1CCC(N2Cc3ccc(CCC(=O)Nc4cc(Cl)cc(OC(F)F)c4)cc3C2=O)C(=O)N1", "note": "(centres unmarked) [Compound 23]", "values": [{"measurement": "DC50", "value": "≤ 30", "unit": "nM"}]}, {"smiles": "Cc1ccc(NC(=O)CCc2ccc3c(c2)C(=O)N(C2CCC(=O)NC2=O)C3)cc1OC(F)F", "note": "(centres unmarked) [Compound 29]", "values": [{"measurement": "DC50", "value": "≤ 30", "unit": "nM"}]}, {"smiles": "O=C1CCC(N2Cc3ccc(CCC(=O)Nc4ccc(-c5ccccc5)nc4)cc3C2=O)C(=O)N1", "note": "(centres unmarked) [Compound 34]", "values": [{"measurement": "DC50", "value": "≤ 30", "unit": "nM"}]}, {"smiles": "Cc1c(CN2CCOCC2)cc(NC(=O)CCc2ccc3c(c2)C(=O)N(C2CCC(=O)NC2=O)C3)cc1OC(F)F", "note": "(centres unmarked) [Compound 35]", "values": [{"measurement": "DC50", "value": "≤ 30", "unit": "nM"}]}, {"smiles": "CC(C)(C)c1ccc(NC(=O)CCc2ccc3c(c2)C(=O)N(C2CCC(=O)NC2=O)C3)cn1", "note": "(centres unmarked) [Compound 41]", "values": [{"measurement": "DC50", "value": "≤ 30", "unit": "nM"}]}, {"smiles": "Cc1c(F)cc(NC(=O)CCc2ccc3c(c2)C(=O)N(C2CCC(=O)NC2=O)C3)cc1CN1CCOCC1", "note": "(centres unmarked) [Compound 42]", "values": [{"measurement": "DC50", "value": "≤ 30", "unit": "nM"}]}, {"smiles": "CCc1cc(NC(=O)CCc2ccc3c(c2)C(=O)N(C2CCC(=O)NC2=O)C3)cc(Cl)c1C", "note": "(centres unmarked) [Compound 43]", "values": [{"measurement": "DC50", "value": "≤ 30", "unit": "nM"}]}, {"smiles": "O=C1CCC(N2Cc3ccc(CCC(=O)Nc4ccc(-c5ccccn5)cc4)cc3C2=O)C(=O)N1", "note": "(centres unmarked) [Compound 44]", "values": [{"measurement": "DC50", "value": "≤ 30", "unit": "nM"}]}, {"smiles": "CC(C)(C)c1ccc(NC(=O)CCc2ccc3c(c2)C(=O)N(C2CCC(=O)NC2=O)C3)cc1", "note": "(centres unmarked) [Compound 45]", "values": [{"measurement": "DC50", "value": "≤ 30", "unit": "nM"}]}, {"smiles": "Cc1c(CN2CCOCC2)cc(NC(=O)CCc2ccc3c(c2)C(=O)N(C2CCC(=O)NC2=O)C3)cc1OC(F)(F)F", "note": "(centres unmarked) [Compound 53]", "values": [{"measurement": "DC50", "value": "≤ 30", "unit": "nM"}]}]}
